Experimental data: PMC11997217, “Inactivation of GH3.5 by COP1-mediated K63-linked ubiquitination promotes seedling hypocotyl elongation” (Nature Communications, 2025)
No constants are given. Whether binding was seen depends on the method and setting. Binding seen in cells or lysates may run through a third protein. Binding can be weak; no strength is given. Tags and fused reporters may be left off the sequences shown.

Assays:
Assay in all cases: split reporter; firefly luciferase complementation imaging (LCI) in Nicotiana benthamiana leaves; COP1 forms fused with cLUC, GH3.5 with nLUC; 3 d in the dark after infiltration
[1] = molecular target: COP1-ΔRING fused with cLUC (Arabidopsis)
[2] = molecular target: COP1-ΔCoil fused with cLUC (Arabidopsis)
[3] = molecular target: COP1-ΔWD40 fused with cLUC (Arabidopsis)

Measured: binding

B1: GST-GH3.5 (enzyme, Arabidopsis, UniProt O81829 1-612, looked up)
chain: MPEAPKKESLEVFDLTLDQKNKQKLQLIEELTSNADQVQRQVLEEILTRNADVEYLRRHDLNGRTDRETFKNIMPVITYEDIEPEINRIANGDKSPILSSKPISEFLTSSGTSGGERKLMPTIEEELDRRSLLYSLLMPVMSQFVPGLENGKGMYFLFIKSESKTPGGLPARPVLTSYYKSSHFKERPYDPYTNYTSPNETILCSDSYQSMYSQMLCGLCQHQEVLRVGAVFASGFIRAIKFLEKHWIELVRDIRTGTLSSLITDPSVREAVAKILKPSPKLADFVEFECKKSSWQGIITRLWPNTKYVDVIVTGTMSQYIPTLDYYSNGLPLVCTMYASSECYFGVNLRPLCKPSEVSYTLIPSMAYFEFLPVHRNNGVTNSINLPKALTEKEQQELVDLVDVKLGQEYELVVTTYAGLCRYRVGDLLRVTGFKNKAPQFSFICRKNVVLSIDSDKTDEVELQNAVKNAVTHLVPFDASLSEYTSYADTSSIPGHYVLFWELCLDGNTPIPPSVFEDCCLAVEESFNTVYRQGRVSDKSIGPLEIKIVEPGTFDKLMDYAISLGASINQYKTPRCVKFAPIIELLNSRVVDSYFSPKCPKWVPGHKQWGSN
notes: the GH3.5 CDS inserted into BamHI/EcoRI of pGEX4T-1; also called GRETCHEN HAGEN 3.5; source: E. coli BL21, purified (Glutathione Sepharose 4B); not shown: GST, N-terminal, kept
binds: all assays above
